Laboratory results published in the supplement of paper PMC10849652.
Some of the results follow.

Sequences of proteins named here, by UniProt entry; tags and fusion partners are left off. A change or cut given only in a name is not applied to a line headed by its entry.
UniProt Q96J01: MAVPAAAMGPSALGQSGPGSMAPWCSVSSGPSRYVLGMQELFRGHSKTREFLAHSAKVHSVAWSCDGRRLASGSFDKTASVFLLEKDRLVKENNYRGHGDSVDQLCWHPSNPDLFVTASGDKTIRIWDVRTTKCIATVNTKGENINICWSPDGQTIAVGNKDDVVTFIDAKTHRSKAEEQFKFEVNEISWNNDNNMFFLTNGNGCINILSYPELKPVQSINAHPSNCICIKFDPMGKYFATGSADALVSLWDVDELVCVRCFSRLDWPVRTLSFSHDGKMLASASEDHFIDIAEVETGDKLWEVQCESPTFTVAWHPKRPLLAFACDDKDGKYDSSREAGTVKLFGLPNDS
UniProt Q99426: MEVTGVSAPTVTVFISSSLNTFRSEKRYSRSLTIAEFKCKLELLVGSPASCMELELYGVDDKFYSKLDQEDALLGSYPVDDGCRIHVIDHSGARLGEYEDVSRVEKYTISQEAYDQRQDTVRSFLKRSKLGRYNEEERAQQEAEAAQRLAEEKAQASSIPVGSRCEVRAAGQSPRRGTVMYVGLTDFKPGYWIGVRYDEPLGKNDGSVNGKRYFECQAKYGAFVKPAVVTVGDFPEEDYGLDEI
UniProt Q9Y5J7: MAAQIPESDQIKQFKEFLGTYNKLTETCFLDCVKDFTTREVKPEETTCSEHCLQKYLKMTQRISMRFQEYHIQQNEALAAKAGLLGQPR
UniProt Q9NWX6: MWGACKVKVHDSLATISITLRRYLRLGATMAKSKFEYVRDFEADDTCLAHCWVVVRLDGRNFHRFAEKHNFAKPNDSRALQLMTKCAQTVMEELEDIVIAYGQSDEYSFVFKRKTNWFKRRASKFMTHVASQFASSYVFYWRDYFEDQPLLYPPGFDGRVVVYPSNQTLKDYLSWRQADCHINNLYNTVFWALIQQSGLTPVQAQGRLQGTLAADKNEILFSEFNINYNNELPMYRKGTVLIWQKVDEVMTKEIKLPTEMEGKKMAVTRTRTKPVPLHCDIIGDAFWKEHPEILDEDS
UniProt P07996: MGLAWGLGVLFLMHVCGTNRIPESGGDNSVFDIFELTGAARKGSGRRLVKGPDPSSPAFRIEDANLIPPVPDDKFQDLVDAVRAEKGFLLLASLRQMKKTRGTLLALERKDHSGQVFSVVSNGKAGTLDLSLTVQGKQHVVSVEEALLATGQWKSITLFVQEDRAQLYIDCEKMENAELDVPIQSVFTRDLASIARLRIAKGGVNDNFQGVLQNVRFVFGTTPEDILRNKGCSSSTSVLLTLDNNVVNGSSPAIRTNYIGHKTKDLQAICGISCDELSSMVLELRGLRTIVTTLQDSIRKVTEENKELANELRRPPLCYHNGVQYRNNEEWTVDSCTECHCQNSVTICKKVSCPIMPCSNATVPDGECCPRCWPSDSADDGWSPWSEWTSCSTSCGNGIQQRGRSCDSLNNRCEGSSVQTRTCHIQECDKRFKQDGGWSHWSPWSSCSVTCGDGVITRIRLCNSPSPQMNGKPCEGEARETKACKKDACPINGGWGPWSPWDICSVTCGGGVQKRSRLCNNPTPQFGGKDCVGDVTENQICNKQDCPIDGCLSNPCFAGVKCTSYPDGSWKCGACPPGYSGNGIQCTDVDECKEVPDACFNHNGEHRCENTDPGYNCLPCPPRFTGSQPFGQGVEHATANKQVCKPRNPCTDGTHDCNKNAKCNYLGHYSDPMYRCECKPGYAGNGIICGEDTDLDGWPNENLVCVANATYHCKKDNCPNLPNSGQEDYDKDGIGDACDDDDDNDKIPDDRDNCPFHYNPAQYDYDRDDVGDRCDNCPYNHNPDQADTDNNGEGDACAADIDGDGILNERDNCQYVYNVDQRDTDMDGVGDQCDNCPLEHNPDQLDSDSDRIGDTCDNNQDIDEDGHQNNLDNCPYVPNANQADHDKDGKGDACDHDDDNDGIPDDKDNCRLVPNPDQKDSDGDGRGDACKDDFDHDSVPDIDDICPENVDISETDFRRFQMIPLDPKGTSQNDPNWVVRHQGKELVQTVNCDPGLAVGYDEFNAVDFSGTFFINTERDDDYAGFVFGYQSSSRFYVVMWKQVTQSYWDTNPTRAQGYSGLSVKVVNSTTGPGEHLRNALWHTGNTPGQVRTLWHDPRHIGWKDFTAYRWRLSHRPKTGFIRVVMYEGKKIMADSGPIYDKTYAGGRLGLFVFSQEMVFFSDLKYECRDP
UniProt P29401: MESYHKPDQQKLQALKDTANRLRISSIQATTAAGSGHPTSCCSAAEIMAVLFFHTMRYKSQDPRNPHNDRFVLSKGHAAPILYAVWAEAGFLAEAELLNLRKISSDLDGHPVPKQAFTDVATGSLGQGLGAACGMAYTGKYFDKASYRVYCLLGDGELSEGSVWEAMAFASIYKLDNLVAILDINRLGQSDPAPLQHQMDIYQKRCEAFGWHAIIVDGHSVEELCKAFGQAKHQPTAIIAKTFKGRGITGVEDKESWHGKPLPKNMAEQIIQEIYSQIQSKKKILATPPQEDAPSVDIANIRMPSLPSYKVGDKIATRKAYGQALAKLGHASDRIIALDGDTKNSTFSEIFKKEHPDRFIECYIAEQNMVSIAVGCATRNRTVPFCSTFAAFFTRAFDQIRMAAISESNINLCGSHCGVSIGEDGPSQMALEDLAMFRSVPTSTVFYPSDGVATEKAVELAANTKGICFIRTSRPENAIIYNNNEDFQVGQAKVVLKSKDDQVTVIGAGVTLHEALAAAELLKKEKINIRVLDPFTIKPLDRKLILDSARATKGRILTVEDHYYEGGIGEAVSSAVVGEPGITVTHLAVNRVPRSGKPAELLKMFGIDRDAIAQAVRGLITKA
UniProt O00142: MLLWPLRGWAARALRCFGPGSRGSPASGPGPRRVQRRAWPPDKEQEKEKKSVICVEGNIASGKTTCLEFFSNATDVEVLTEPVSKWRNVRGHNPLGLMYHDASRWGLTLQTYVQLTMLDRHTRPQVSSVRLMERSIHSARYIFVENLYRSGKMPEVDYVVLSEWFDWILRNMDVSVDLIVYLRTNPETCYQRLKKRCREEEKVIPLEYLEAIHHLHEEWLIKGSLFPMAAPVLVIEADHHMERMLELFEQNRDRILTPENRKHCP
UniProt O60830: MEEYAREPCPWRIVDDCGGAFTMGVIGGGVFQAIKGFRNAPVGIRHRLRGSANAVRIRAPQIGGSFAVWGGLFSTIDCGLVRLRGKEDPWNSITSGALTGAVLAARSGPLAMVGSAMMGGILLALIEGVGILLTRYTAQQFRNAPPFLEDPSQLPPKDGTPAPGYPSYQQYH
UniProt Q15554: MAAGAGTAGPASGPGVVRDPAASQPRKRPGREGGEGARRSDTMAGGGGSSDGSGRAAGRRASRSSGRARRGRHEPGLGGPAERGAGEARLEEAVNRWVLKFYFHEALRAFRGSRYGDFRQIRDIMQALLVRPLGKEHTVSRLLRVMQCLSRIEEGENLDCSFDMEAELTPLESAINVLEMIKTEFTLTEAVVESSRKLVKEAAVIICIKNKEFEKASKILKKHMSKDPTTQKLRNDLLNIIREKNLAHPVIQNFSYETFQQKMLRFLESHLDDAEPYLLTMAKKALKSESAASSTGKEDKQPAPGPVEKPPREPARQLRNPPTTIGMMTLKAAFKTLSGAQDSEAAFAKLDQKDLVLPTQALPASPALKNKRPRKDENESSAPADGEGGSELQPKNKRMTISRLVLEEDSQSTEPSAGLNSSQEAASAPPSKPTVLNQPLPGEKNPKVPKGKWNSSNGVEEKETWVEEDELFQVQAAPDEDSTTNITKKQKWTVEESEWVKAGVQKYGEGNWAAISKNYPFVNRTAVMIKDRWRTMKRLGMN
UniProt P62380: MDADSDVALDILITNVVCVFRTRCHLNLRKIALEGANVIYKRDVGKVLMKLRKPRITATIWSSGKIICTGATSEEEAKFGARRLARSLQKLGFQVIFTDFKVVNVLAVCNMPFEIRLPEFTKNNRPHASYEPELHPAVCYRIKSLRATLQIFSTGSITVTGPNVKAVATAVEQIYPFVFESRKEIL
UniProt Q9Y4C2: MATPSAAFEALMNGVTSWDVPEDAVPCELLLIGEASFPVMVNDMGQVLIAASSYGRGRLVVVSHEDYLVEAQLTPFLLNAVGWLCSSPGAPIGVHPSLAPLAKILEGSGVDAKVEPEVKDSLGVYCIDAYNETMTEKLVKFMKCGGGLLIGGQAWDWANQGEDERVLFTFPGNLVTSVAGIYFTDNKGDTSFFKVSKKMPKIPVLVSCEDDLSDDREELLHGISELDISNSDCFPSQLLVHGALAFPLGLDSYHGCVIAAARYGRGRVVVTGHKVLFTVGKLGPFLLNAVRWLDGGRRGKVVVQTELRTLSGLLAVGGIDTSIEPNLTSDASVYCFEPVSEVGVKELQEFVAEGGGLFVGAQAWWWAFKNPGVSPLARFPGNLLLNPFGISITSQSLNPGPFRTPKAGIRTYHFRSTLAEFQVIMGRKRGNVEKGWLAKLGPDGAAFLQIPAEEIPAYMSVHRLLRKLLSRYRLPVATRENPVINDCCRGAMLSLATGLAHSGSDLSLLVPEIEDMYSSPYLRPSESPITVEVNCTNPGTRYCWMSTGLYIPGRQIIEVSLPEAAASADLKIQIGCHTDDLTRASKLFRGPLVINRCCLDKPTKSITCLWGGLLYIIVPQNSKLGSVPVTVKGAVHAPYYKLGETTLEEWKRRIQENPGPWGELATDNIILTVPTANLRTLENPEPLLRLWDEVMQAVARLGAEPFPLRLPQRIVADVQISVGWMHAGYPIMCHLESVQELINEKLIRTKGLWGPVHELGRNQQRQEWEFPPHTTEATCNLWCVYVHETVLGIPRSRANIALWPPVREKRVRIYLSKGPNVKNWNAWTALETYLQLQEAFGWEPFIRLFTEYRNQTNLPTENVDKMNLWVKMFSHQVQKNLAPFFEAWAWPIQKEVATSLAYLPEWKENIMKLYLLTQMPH
UniProt Q5JTD0: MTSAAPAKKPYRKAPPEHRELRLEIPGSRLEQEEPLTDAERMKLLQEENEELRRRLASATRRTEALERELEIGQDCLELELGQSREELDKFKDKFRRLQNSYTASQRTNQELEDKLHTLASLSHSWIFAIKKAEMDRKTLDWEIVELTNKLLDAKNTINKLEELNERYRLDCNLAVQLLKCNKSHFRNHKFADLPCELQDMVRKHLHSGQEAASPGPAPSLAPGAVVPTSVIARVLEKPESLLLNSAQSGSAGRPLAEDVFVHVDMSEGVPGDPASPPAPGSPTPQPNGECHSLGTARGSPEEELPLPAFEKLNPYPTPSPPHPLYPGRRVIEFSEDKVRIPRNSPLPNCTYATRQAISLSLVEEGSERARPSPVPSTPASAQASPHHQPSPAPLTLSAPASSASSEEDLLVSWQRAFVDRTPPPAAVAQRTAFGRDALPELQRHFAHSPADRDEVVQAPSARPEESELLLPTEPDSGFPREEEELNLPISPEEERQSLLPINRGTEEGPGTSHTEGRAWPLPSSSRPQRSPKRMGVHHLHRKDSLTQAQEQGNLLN
UniProt Q9BTF0: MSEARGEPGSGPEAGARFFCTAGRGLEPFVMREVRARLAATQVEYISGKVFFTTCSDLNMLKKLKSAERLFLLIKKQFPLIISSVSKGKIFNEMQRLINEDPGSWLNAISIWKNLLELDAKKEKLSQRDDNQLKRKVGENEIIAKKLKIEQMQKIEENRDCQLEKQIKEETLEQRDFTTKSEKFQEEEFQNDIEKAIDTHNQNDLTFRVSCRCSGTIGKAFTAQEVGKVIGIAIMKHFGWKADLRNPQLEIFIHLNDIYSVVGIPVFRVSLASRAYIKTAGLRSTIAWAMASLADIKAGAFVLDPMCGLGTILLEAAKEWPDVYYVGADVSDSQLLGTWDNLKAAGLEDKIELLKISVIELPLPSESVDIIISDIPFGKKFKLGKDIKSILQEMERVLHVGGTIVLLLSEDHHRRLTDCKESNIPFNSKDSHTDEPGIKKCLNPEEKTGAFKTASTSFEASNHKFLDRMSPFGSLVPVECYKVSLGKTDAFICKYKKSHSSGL
UniProt O60907: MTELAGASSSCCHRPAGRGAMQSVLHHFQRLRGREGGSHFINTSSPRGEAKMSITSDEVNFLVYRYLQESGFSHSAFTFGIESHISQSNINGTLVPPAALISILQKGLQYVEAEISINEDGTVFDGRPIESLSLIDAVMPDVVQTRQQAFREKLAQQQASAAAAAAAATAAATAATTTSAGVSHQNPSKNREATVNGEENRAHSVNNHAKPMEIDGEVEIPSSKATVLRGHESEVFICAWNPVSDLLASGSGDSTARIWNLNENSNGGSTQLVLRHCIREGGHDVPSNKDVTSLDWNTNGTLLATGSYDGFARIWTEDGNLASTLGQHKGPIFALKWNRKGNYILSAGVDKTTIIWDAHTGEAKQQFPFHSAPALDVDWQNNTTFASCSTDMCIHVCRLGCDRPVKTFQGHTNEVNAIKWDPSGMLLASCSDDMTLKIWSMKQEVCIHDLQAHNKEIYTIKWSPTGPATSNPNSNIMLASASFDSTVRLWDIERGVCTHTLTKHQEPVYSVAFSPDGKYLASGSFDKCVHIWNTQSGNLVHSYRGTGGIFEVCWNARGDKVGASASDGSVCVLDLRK

Columns and labels:
Assay in all cases: log2 fold change, soluble protein after heating vs DMSO (PISA); higher = thermal stabilisation; K562 cells, 10 uM, 30 min; active = over 0.2 and 3.5 SD of the protein, either way, in both replicates (recomputed)
saracatinib = compound: CN1CCN(CCOc2cc(OC3CCOCC3)c3c(Nc4c(Cl)ccc5c4OCO5)ncnc3c2)CC1 [saracatinib]
How it was run: (§1)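 Soluble protein was quantified by TMTpro 16plex LC-MS/MS after channel sums were equalised. It was obtained as the supernatant after 21,000xg for 90 min from pooled aliquots of K562 cells (2×10^6 cells/mL, 10 μM compound, 30 min) heated for 3 min across 48°C-58°C and extracted in PBS with 0.5% NP-40 at 4°C. Thermal stability values are relative to control samples and come from duplicates. They are given as log2 fold changes.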

sotrastaurin = compound: CN1CCN(c2nc(C3=C(c4c[nH]c5ccccc45)C(=O)NC3=O)c3ccccc3n2)CC1 [sotrastaurin]
How it was run: as §1

alvocidib = compound: CN1CC[C@H](c2c(O)cc(O)c3c(=O)cc(-c4ccccc4Cl)oc23)[C@H](O)C1 [alvocidib]
How it was run: as §1

Tubastatin A = compound: CN1CCc2c(c3ccccc3n2Cc2ccc(C(=O)NO)cc2)C1 [Tubastatin A]
How it was run: as §1

[1] = compound: CNC(=O)C1=CC=CC=C1NC2=NC(=NC=C2Cl)NC3=C(C=C(C=C3)N4CCOCC4)OC
How it was run: as §1

defactinib = compound: CNC(=O)c1ccc(Nc2ncc(C(F)(F)F)c(NCc3nccnc3N(C)S(C)(=O)=O)n2)cc1 [defactinib]
How it was run: as §1

rucaparib = compound: CNCc1ccc(-c2[nH]c3cc(F)cc4c3c2CCNC4=O)cc1 [rucaparib]
How it was run: as §1

[2] = compound: CNc1nc(-c2ccc3c(N)n[nH]c3c2)cc(N2C[C@@H](C(=O)NC3CCCCC3)CC[C@H]2C)n1
How it was run: as §1

encorafenib = compound: COC(=O)N[C@@H](C)CNc1nccc(-c2cn(C(C)C)nc2-c2cc(Cl)cc(NS(C)(=O)=O)c2F)n1 [encorafenib]
How it was run: as §1

[3] = compound: COC(=O)[C@H](CCSC)NC(=O)C1=C(C=C(C=C1)NC[C@H](CS)N)C2=CC=CC=C2
How it was run: as §1

Measured: log2 fold change

TGOLN2 isoform 7 (UniProt O43493)
inactive: saracatinib -0.045 | sotrastaurin 0.046 | alvocidib 0.001 | Tubastatin A -0.012 | [1] 0.015 | defactinib -0.001 | rucaparib -0.034 | [2] -0.025 | encorafenib -0.069 | [3] 0.037

THOC3 (UniProt Q96J01)
inactive: saracatinib 0.07 | sotrastaurin 0.054 | alvocidib -0.101 | Tubastatin A -0.008 | [1] -0.049 | defactinib -0.017 | rucaparib 0.028 | [2] 0.023 | encorafenib 0.002 | [3] 0.003

TF (UniProt P02787)
inactive: saracatinib 0.418 | sotrastaurin 0.173 | alvocidib 0.072 | Tubastatin A -0.099 | [1] 0.15 | defactinib 0.003 | rucaparib -0.144 | [2] 0.089 | encorafenib 0.111 | [3] 0.133

TDP2 isoform 2 (UniProt O95551)
inactive: saracatinib -0.01 | sotrastaurin 0.027 | alvocidib -0.093 | Tubastatin A 0.04 | [1] 0.018 | defactinib -0.131 | rucaparib -0.13 | [2] 0.032 | encorafenib 0.026 | [3] 0.03

TBCB (UniProt Q99426)
inactive: saracatinib 0.008 | sotrastaurin -0.023 | alvocidib -0.142 | Tubastatin A -0.008 | [1] 0.013 | defactinib -0.112 | rucaparib -0.049 | [2] -0.002 | encorafenib 0.036 | [3] -0.025

TIMM9 (UniProt Q9Y5J7)
inactive: saracatinib -0.027 | sotrastaurin -0.006 | alvocidib -0.067 | Tubastatin A -0.002 | [1] -0.004 | defactinib 0 | rucaparib -0.026 | [2] 0.003 | encorafenib -0.072 | [3] -0.036

THOP1 (UniProt P52888)
inactive: saracatinib 0.026 | sotrastaurin 0.031 | alvocidib -0.057 | Tubastatin A 0.028 | [1] -0.036 | defactinib -0.027 | rucaparib -0.022 | [2] -0.035 | encorafenib -0.013 | [3] 0.002

THG1L (UniProt Q9NWX6)
inactive: saracatinib 0.016 | sotrastaurin 0.027 | alvocidib -0.007 | Tubastatin A 0.01 | [1] -0.046 | defactinib -0.016 | rucaparib -0.088 | [2] -0.011 | encorafenib 0.015 | [3] 0.024

Reprinted at random: two records from the list
TDP2 isoform 2 (UniProt O95551)
inactive: saracatinib -0.01 | sotrastaurin 0.027 | alvocidib -0.093 | Tubastatin A 0.04 | [1] 0.018 | defactinib -0.131 | rucaparib -0.13 | [2] 0.032 | encorafenib 0.026 | [3] 0.03

THG1L (UniProt Q9NWX6)
inactive: saracatinib 0.016 | sotrastaurin 0.027 | alvocidib -0.007 | Tubastatin A 0.01 | [1] -0.046 | defactinib -0.016 | rucaparib -0.088 | [2] -0.011 | encorafenib 0.015 | [3] 0.024

(next part)

THBS1 (UniProt P07996)
inactive: saracatinib 0.127 | sotrastaurin 0.185 | alvocidib 0.066 | Tubastatin A -0.068 | [1] -0.039 | defactinib 0.03 | rucaparib -0.193 | [2] -0.076 | encorafenib -0.04 | [3] 0.1

TGM2 (UniProt P21980)
inactive: saracatinib 0.019 | sotrastaurin 0.024 | alvocidib -0.032 | Tubastatin A -0.031 | [1] -0.065 | defactinib -0.018 | rucaparib -0.028 | [2] -0.016 | encorafenib 0.005 | [3] 0.003

TKT isoform 2 (UniProt P29401)
inactive: saracatinib 0.043 | sotrastaurin 0.027 | alvocidib -0.02 | Tubastatin A -0.019 | [1] -0.027 | defactinib 0.013 | rucaparib -0.079 | [2] -0.002 | encorafenib -0.027 | [3] 0.014

TIMP1 (UniProt P01033)
inactive: saracatinib 0.05 | sotrastaurin 0.108 | alvocidib 0.087 | Tubastatin A 0.005 | [1] 0.051 | defactinib -0.063 | rucaparib -0.01 | [2] -0.024 | encorafenib -0.029 | [3] 0.025

TK2 isoform 6 (UniProt O00142)
inactive: saracatinib -0.056 | sotrastaurin 0.068 | alvocidib 0.181 | Tubastatin A 0.019 | [1] 0.01 | defactinib -0.023 | rucaparib -0.121 | [2] -0.225 | encorafenib -0.266 | [3] 0.092

TIMM17B (UniProt O60830)
inactive: saracatinib 0.032 | sotrastaurin 0.019 | alvocidib 0.002 | Tubastatin A -0.092 | [1] 0.013 | defactinib 0.023 | rucaparib -0.023 | [2] -0.066 | encorafenib -0.007 | [3] 0.072

TES (UniProt Q9UGI8)
inactive: saracatinib 0.022 | sotrastaurin -0.005 | alvocidib -0.03 | Tubastatin A -0.033 | [1] 0 | defactinib -0.017 | rucaparib -0.022 | [2] -0.029 | encorafenib -0.02 | [3] 0.024

TLE3 isoform 4 (UniProt Q04726)
inactive: saracatinib 0.032 | sotrastaurin 0.017 | alvocidib -0.026 | Tubastatin A -0.046 | [1] 0.02 | defactinib 0.007 | rucaparib 0.018 | [2] 0.023 | encorafenib -0.053 | [3] 0.011

TERF2 (UniProt Q15554)
inactive: saracatinib 0.032 | sotrastaurin -0.018 | alvocidib 0.021 | Tubastatin A 0.071 | [1] -0.018 | defactinib 0.106 | rucaparib 0.295 | [2] 0.098 | encorafenib 0.169 | [3] 0.038

THOC7 (UniProt Q6I9Y2)
inactive: saracatinib 0.01 | sotrastaurin -0.008 | alvocidib -0.061 | Tubastatin A -0.017 | [1] 0.022 | defactinib -0.076 | rucaparib 0.045 | [2] -0.06 | encorafenib 0.064 | [3] 0.038

TIPIN (UniProt Q9BVW5)
inactive: saracatinib 0.079 | sotrastaurin -0.031 | alvocidib 0.028 | Tubastatin A 0.042 | [1] 0.011 | defactinib -0.047 | rucaparib -0.034 | [2] -0.034 | encorafenib 0.064 | [3] 0.056

TBPL1 (UniProt P62380)
inactive: saracatinib -0.024 | sotrastaurin -0.051 | alvocidib -0.12 | Tubastatin A 0.013 | [1] 0.128 | defactinib -0.076 | rucaparib 0.067 | [2] 0.025 | encorafenib 0.041 | [3] -0.007

TECR (UniProt Q9NZ01)
inactive: saracatinib -0.018 | sotrastaurin -0.007 | Tubastatin A -0.035 | [1] -0.07 | defactinib -0.022 | rucaparib 0.03 | [2] -0.017 | encorafenib 0.045 | [3] -0.028

TCAF1 (UniProt Q9Y4C2)
inactive: saracatinib -0.092 | sotrastaurin -0.074 | alvocidib -0.01 | Tubastatin A 0.024 | [1] -0.062 | defactinib -0.048 | rucaparib 0.083 | [2] 0.026 | encorafenib 0.06 | [3] -0.028

TJAP1 (UniProt Q5JTD0)
inactive: saracatinib -0.085 | sotrastaurin -0.032 | alvocidib 0.086 | Tubastatin A -0.016 | [1] 0.017 | defactinib -0.15 | rucaparib 0.064 | [2] 0.021 | encorafenib -0.064 | [3] 0.046

THUMPD2 (UniProt Q9BTF0)
inactive: saracatinib 0.16 | sotrastaurin 0.008 | alvocidib 0.058 | Tubastatin A -0.023 | [1] 0.032 | defactinib -0.06 | rucaparib 0.1 | [2] 0.031 | encorafenib 0.016 | [3] 0.009

TIMM22 (UniProt Q9Y584)
inactive: saracatinib 0.254 | sotrastaurin -0.038 | alvocidib -0.157 | Tubastatin A -0.021 | [1] -0.042 | defactinib -0.089 | rucaparib 0.182 | [2] 0.085 | encorafenib -0.075 | [3] -0.14

TCP1 (UniProt P17987)
inactive: saracatinib 0.013 | sotrastaurin 0.02 | alvocidib -0.001 | Tubastatin A -0.026 | [1] -0.029 | defactinib -0.004 | rucaparib -0.022 | [2] 0.018 | encorafenib 0.012 | [3] 0.005

TFG (UniProt Q92734)
inactive: saracatinib 0.023 | sotrastaurin 0.012 | alvocidib 0.016 | Tubastatin A -0.031 | [1] -0.009 | defactinib -0.007 | rucaparib -0.001 | [2] -0.01 | encorafenib -0.036 | [3] 0.036

TEX2 isoform 2 (UniProt Q8IWB9)
inactive: saracatinib 0.093 | sotrastaurin 0.018 | alvocidib -0.133 | Tubastatin A 0.075 | [1] -0.072 | defactinib -0.108 | [2] -0.044 | [3] 0.02

TBL1X (UniProt O60907)
inactive: saracatinib 0.001 | sotrastaurin 0.028 | alvocidib 0.017 | Tubastatin A -0.063 | [1] -0.001 | defactinib 0.012 | rucaparib -0.046 | [2] -0.005 | encorafenib 0.017 | [3] 0.005

TDRD15 (UniProt B5MCY1)
inactive: saracatinib -0.518 | sotrastaurin 0.099 | alvocidib 0.097 | Tubastatin A 0 | [1] -0.008 | defactinib -0.105 | rucaparib -0.161 | [2] -0.18 | encorafenib 0.002 | [3] -0.436
